{"source": "PubChem BioAssay AID504744 (Drosophila RNAi Screening Center, 2011)", "aim": "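Find genes whose loss alters insulin-driven dAkt phosphorylation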 (primary screen)", "cells": "Drosophila Kc167 cells", "reagent": "long dsRNA against Drosophila genes, 250 ng dsRNA per well of a 384-well plate", "time to read-out": "3 days of knock-down, then overnight serum-free starvation before stimulation", "challenge": "bovine insulin at 387 nM for 10 minutes after 12 h without serum", "read-out": "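Per-well phospho-dAkt level from an in-cell fluorescent antibody stain, divided by a DNA-dye signal; log2 residuals turned into z-scores that take cell number into account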", "call rule": "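Hit in the insulin screen when the two-replicate mean z-score is more extreme than plus or minus 2.5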", "note": "The screen tested about 23,000 reagents; shown is a random part of those that have a named target and a result. Over the whole deposit, 98 (0.43%) got an active call. 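Only hit calls are given; the phospho-dAkt signals, z-scores and hit direction were not deposited.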 A plus sign joins genes that one reagent is predicted to hit."}
{"Gene": "CG13309 (GeneID 39012)", "DRSC id": "DRSC09980", "activity call": "inactive"}
{"Gene": "tap (GeneID 39935)", "DRSC id": "DRSC11402", "activity call": "inactive"}
{"Gene": "vrs (GeneID 41537)", "DRSC id": "DRSC15832", "activity call": "inactive"}
{"Gene": "CG8924 (GeneID 32557)", "DRSC id": "DRSC20122", "activity call": "inactive"}
{"Gene": "CG42534 (GeneID 43298)", "DRSC id": "DRSC14722", "activity call": "inactive"}
{"Gene": "CG42534 (GeneID 43298)", "DRSC id": "DRSC14759", "activity call": "inactive"}
{"Gene": "CG42534 (GeneID 43298)", "DRSC id": "DRSC16072", "activity call": "inactive"}
{"Gene": "Mip (GeneID 39933)", "DRSC id": "DRSC10639", "activity call": "inactive"}
{"Gene": "CG12546 + CG14452", "DRSC id": "DRSC11709", "activity call": "inactive"}
{"Gene": "CG6527 (GeneID 39197)", "DRSC id": "DRSC10659", "activity call": "inactive"}
{"Gene": "CG9902 (GeneID 32622)", "DRSC id": "DRSC20212", "activity call": "inactive"}
{"Gene": "CG15579 (GeneID 50380)", "DRSC id": "DRSC18067", "activity call": "inactive"}
{"Gene": "Prp39 (GeneID 43399)", "DRSC id": "DRSC15133", "activity call": "inactive"}
{"Gene": "CG3021 (GeneID 53546)", "DRSC id": "DRSC18165", "activity call": "inactive"}
{"Gene": "CG3021 (GeneID 53546)", "DRSC id": "DRSC18652", "activity call": "inactive"}
{"Gene": "phyl (GeneID 36606)", "DRSC id": "DRSC07663", "activity call": "inactive"}
{"Gene": "in (GeneID 40246)", "DRSC id": "DRSC11888", "activity call": "inactive"}
{"Gene": "Pask (GeneID 37824)", "DRSC id": "DRSC04337", "activity call": "inactive"}
{"Gene": "Tom (GeneID 39619)", "DRSC id": "DRSC11306", "activity call": "inactive"}
{"Gene": "mRpS33 (GeneID 41991)", "DRSC id": "DRSC14239", "activity call": "inactive"}
{"Gene": "CG31091 (GeneID 318591)", "DRSC id": "DRSC15933", "activity call": "inactive"}
{"Gene": "eIF6 (GeneID 37776)", "DRSC id": "DRSC04674", "activity call": "inactive"}
{"Gene": "ebd1 (GeneID 38082)", "DRSC id": "DRSC08565", "activity call": "inactive"}
{"Gene": "x16 (GeneID 33967)", "DRSC id": "DRSC00960", "activity call": "inactive"}
{"Gene": "x16 (GeneID 33967)", "DRSC id": "DRSC03638", "activity call": "inactive"}
{"Gene": "Uba2 (GeneID 44496)", "DRSC id": "DRSC11311", "activity call": "inactive"}
{"Gene": "CG15412 (GeneID 33553)", "DRSC id": "DRSC00427", "activity call": "inactive"}
{"Gene": "Ubx (GeneID 42034)", "DRSC id": "DRSC16891", "activity call": "inactive"}
{"Gene": "Daxx (GeneID 33906)", "DRSC id": "DRSC03255", "activity call": "inactive"}
{"Gene": "Obp46a (GeneID 36088)", "DRSC id": "DRSC06220", "activity call": "inactive"}
{"Gene": "nop5 (GeneID 33966)", "DRSC id": "DRSC03582", "activity call": "inactive"}
{"Gene": "CG9899 (GeneID 37676)", "DRSC id": "DRSC04597", "activity call": "inactive"}
{"Gene": "Cpr67Fa2 (GeneID 39224)", "DRSC id": "DRSC10315", "activity call": "inactive"}
{"Gene": "CG3558 (GeneID 48421)", "DRSC id": "DRSC00615", "activity call": "inactive"}
{"Gene": "mirr (GeneID 39441)", "DRSC id": "DRSC11369", "activity call": "inactive"}
{"Gene": "Lst (GeneID 36853)", "DRSC id": "DRSC07146", "activity call": "inactive"}
{"Gene": "CG6015 (GeneID 42593)", "DRSC id": "DRSC15948", "activity call": "inactive"}
{"Gene": "pita (GeneID 37730)", "DRSC id": "DRSC04006", "activity call": "inactive"}
{"Gene": "pita (GeneID 37730)", "DRSC id": "DRSC04435", "activity call": "inactive"}
{"Gene": "CG5065 (GeneID 36860)", "DRSC id": "DRSC06912", "activity call": "inactive"}
{"Gene": "5-HT2B (GeneID 41017)", "DRSC id": "DRSC16360", "activity call": "inactive"}
{"Gene": "5-HT2B (GeneID 41017)", "DRSC id": "DRSC16362", "activity call": "inactive"}
{"Gene": "CG5181 (GeneID 34018)", "DRSC id": "DRSC02825", "activity call": "inactive"}
{"Gene": "CG31230 (GeneID 318637)", "DRSC id": "DRSC22130", "activity call": "inactive"}
{"Gene": "igl (GeneID 36681)", "DRSC id": "DRSC07631", "activity call": "inactive"}
{"Gene": "Dhc62B (GeneID 38226)", "DRSC id": "DRSC08655", "activity call": "inactive"}
{"Gene": "Fbxl4 (GeneID 32378)", "DRSC id": "DRSC19805", "activity call": "inactive"}
{"Gene": "superdeath (GeneID 43444)", "DRSC id": "DRSC14868", "activity call": "inactive"}
{"Gene": "krz (GeneID 53554)", "DRSC id": "DRSC16979", "activity call": "inactive"}
{"Gene": "CG8916 (GeneID 32553)", "DRSC id": "DRSC20120", "activity call": "inactive"}
{"Gene": "Ir52c (GeneID 246630)", "DRSC id": "DRSC21801", "activity call": "inactive"}
{"Gene": "Akr1B (GeneID 39304)", "DRSC id": "DRSC10581", "activity call": "inactive"}
{"Gene": "CG1236 (GeneID 40708)", "DRSC id": "DRSC12203", "activity call": "inactive"}
{"Gene": "Orco (GeneID 40650)", "DRSC id": "DRSC12358", "activity call": "inactive"}
{"Gene": "Dmtn (GeneID 40792)", "DRSC id": "DRSC12513", "activity call": "inactive"}
{"Gene": "nAChRalpha7 (GeneID 32928)", "DRSC id": "DRSC20078", "activity call": "inactive"}
{"Gene": "nAChRalpha7 (GeneID 32928)", "DRSC id": "DRSC20081", "activity call": "inactive"}

5 consecutive reagents from above, for reference:
{"Gene": "CG3021 (GeneID 53546)", "DRSC id": "DRSC18652", "activity call": "inactive"}
{"Gene": "phyl (GeneID 36606)", "DRSC id": "DRSC07663", "activity call": "inactive"}
{"Gene": "in (GeneID 40246)", "DRSC id": "DRSC11888", "activity call": "inactive"}
{"Gene": "Pask (GeneID 37824)", "DRSC id": "DRSC04337", "activity call": "inactive"}
{"Gene": "Tom (GeneID 39619)", "DRSC id": "DRSC11306", "activity call": "inactive"}
